Assay results from PubChem BioAssay AID504467 (National Center for Advancing Translational Sciences (NCATS), 2011).
Hit rate of the full screen: of about 330,000 compounds, about 7,700 (2.3%) were called active. Inconclusive means that the source gave no clear call. Such entries were picked first, then a sample of the others. Calls come from the whole dose curve; as a rule, active = well fitted inhibition curve with a large enough effect; inconclusive = small, poorly fitted or top-dose-only effect, or effect the other way; inactive = flat fitted curve, though single readings scatter. Potencies of inconclusive entries are doubtful fits and often do not repeat.

Assay: qHTS screen for small molecules that inhibit ELG1-dependent DNA repair in human embryonic kidney (HEK293T) cells expressing luciferase-tagged ELG1; note: nearly all actives have a fitted effect of over 55% in size
Conditions: HEK293T ELG1-luciferase reporter, luminescence, 16 h, DNA damage induced by 5-fluorouridine; series mostly up to 46.1 µM
How it was run: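 Quantitative HTS, concentration-response format. 2,000 cells/well co-treated with 5-fluorouridine and compound, 16 hr in 5% CO2 at 37 °C; ONE-Glo luminescence read after 30 min.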
Potency is the fitted concentration of half-maximal effect.

Row | SMILES | Potency
1 | O=c1[nH]c2ccc(S(=O)(=O)N3CCN(c4ccc(F)cc4)CC3)cc2o1 | inconclusive: 0.366 µM [inhibitor, full curve, poor fit]
2 | Cc1cccc(C)c1OCC(=O)NNC(=O)Nc1ccc(Cl)cc1 | inconclusive: 23.1 µM [activator, partial curve, poor fit]
3 | CC1(C)CC(NC(=O)c2cccc(Cl)c2)CC(C)(C)N1 | inactive
4 | COC(=O)c1cc(OC)c(OC)cc1NC(=O)c1ccc(OC)c(OC)c1 | inconclusive: 11.6 µM [inhibitor, partial curve]
5 | O=C(NCCN1C(=O)S/C(=C\c2ccccc2)C1=O)c1cc(S(=O)(=O)N2CCOCC2)c(Cl)cc1Cl | active: 14.6 µM
6 | C/C(=N\NC(N)=S)c1ccc(Cl)s1 | inconclusive: 25.9 µM [inhibitor, single point]
7 | CC1=C(C(=O)OCc2ccccc2)N2C(=O)[C@@H](NC(=O)COc3ccccc3)[C@H]2SC1 | inconclusive: 25.9 µM [inhibitor, single point]
8 | O=C(CSc1nnnn1C1CCCC1)N1CCCCC1 | inconclusive: 16.4 µM [activator, partial curve]
9 | CCOC(=O)c1sc(=S)n(C)c1C | inactive
10 | C[C@H](CO)N1C[C@H](C)[C@@H](CN(C)C(=O)NC2CCCCC2)Oc2c(NC(=O)Nc3ccccc3)cccc2C1=O | inconclusive: 16.4 µM [inhibitor, partial curve, poor fit]
11 | O=C(Nc1nccs1)c1ccc(-c2ccc(F)c(Cl)c2)o1 | inconclusive: 11.6 µM [activator, partial curve, poor fit]
12 | Cc1ccccc1-c1nc(CS(=O)(=O)CC(=O)NCCc2ccccc2)c(C)o1 | inconclusive: 16.4 µM [inhibitor, single point]
13 | CC(C)(C)S(=O)(=O)c1cnc(-c2ccccn2)nc1N | inconclusive: 18.3 µM [activator, single point]
14 | CCC(=O)NC(=S)Nc1ccc(-c2nc3ccc(C)cc3s2)cc1 | inconclusive: 6.51 µM [activator, partial curve]
15 | O=C(CN(Cc1ccc(Cl)cc1)S(=O)(=O)c1ccccc1)NCC1CCCO1 (centres undefined) | inactive
16 | O=C(Nc1nnc(C2CCCCC2)s1)c1ccco1 | inconclusive: 18.4 µM [activator, partial curve]
17 | COc1ccccc1C(=O)Nc1cccc(-c2cn3ccsc3n2)c1 | inconclusive: 11.6 µM [inhibitor, partial curve]
18 | Cc1ccccc1NS(=O)(=O)c1ccc(C(=O)NNC(=O)c2ccccc2O)cc1 | inactive
19 | COc1ccc(-n2c(C)cc(C(=O)COC(=O)Cc3n[nH]c(=O)c4ccccc34)c2C)cc1 | inconclusive: 25.9 µM [inhibitor, partial curve, poor fit]
20 | Cc1ccnc(NC(=O)CS(=O)(=O)c2ccccc2)c1 | inconclusive: 16.4 µM [activator, partial curve]
21 | CCn1nnnc1SCC(=O)Nc1ccc(OC)cc1 | inconclusive: 20.6 µM [activator, single point]
22 | CS(=O)(=O)NCC(c1ccco1)N1CCN(c2ccc(F)cc2)CC1 (centres undefined) | inactive
23 | COc1nc(Nc2ccc(OC)c(Cl)c2)nc(OC)n1 | inactive
24 | CN1CCN(S(=O)(=O)c2csc(C(N)=O)c2)CC1 | inactive
25 | CCN(C(=O)c1ccc(Cl)c([N+](=O)[O-])c1)c1ccccc1 | inconclusive: 11.6 µM [inhibitor, partial curve, poor fit]

Nothing new here: four of the compounds above.
Row | SMILES | Potency
7 | CC1=C(C(=O)OCc2ccccc2)N2C(=O)[C@@H](NC(=O)COc3ccccc3)[C@H]2SC1 | inconclusive: 25.9 µM [inhibitor, single point]
8 | O=C(CSc1nnnn1C1CCCC1)N1CCCCC1 | inconclusive: 16.4 µM [activator, partial curve]
9 | CCOC(=O)c1sc(=S)n(C)c1C | inactive
10 | C[C@H](CO)N1C[C@H](C)[C@@H](CN(C)C(=O)NC2CCCCC2)Oc2c(NC(=O)Nc3ccccc3)cccc2C1=O | inconclusive: 16.4 µM [inhibitor, partial curve, poor fit]

Continuation.

Row | SMILES | Potency
26 | CN(C)C(=O)c1ccc(-n2cccn2)nc1 | inactive
27 | COc1ccccc1CNC(=O)C1CC(c2ccccc2[N+](=O)[O-])=NO1 (centres undefined) | inconclusive: 10 µM [activator, partial curve, poor fit]
28 | Cc1ccccc1NS(=O)(=O)c1cc(C(=O)NCCSC2CCCCC2)ccc1C | inconclusive: 23.1 µM [inhibitor, single point]
29 | COc1ccc(CSc2nnc(C)s2)cc1F | inconclusive: 20.6 µM [activator, partial curve]
30 | CC1(C)Cc2c(cnn2-c2ccccc2)C(NC(=O)CCCN2CCCC2=O)C1 (centres undefined) | inactive
31 | COc1cnn(-c2cccc(C)c2)c(=O)c1Cl | inconclusive: 29.1 µM [activator, partial curve, poor fit]
32 | COc1ccc(C)cc1NC(=O)CSc1nnc2ccc(-c3ccncc3)nn12 | inactive
33 | COC(=O)C(NC(C)=O)(Nc1ccc(C)cn1)C(F)(F)F (centres undefined) | inactive
34 | COc1cc2c(cc1OC)CN(C(=O)c1cc(S(=O)(=O)N3CCCCC3)ccc1Cl)CC2 | inconclusive: 20.6 µM [inhibitor, single point]
35 | O=C(CSc1nnc(NC2CCCCC2)s1)Nc1ccc(N2CCOCC2)cc1 | inconclusive: 31.6 µM [activator, single point]
36 | Cc1cc(C(=O)NCc2ccccc2Cl)c2ccccc2n1 | inactive
37 | O=C(NCCN1C(=O)S/C(=C\c2ccc(Cl)cc2Cl)C1=O)C1=COCCO1 | inactive
38 | Cc1cc(C)c(C)c(S(=O)(=O)N(C)CCc2ccccn2)c1C | inactive
39 | O=C(N/N=C/c1ccncc1)c1ccc2c(c1)OCO2 | inconclusive: 29.1 µM [activator, single point]
40 | Cc1ccc(O)c(C(=O)CC(=O)c2ccc(C(C)(C)C)cc2)c1 | inactive
41 | O=C(COC(=O)COc1cccc(F)c1)Nc1nc2ccccc2s1 | inconclusive: 29.1 µM [activator, single point]
42 | COc1ccc(/C=N/NC(=O)c2ccc(COc3cccc4cccnc34)cc2)cc1O | inconclusive: 29.1 µM [inhibitor, partial curve, poor fit]
43 | COc1cc(O)c(C(CC(=O)N2CCCC2)c2cc(OC)c(OC)c(OC)c2)c(OC)c1 (centres undefined) | inactive
44 | Cc1cc(C)nc(-n2ncc3c2CC(c2cccc(Cl)c2)CC3=O)n1 (centres undefined) | inconclusive: 7.3 µM [inhibitor, partial curve]
45 | CCCCn1c(N)c(N(CC(C)C)C(=O)CCNC(=O)c2ccccc2Cl)c(=O)[nH]c1=O | inactive
46 | CC(=O)C1=C(NC(=O)c2ccc(F)cc2)CC2C1C2(C)C (centres undefined) | inactive
47 | CCOc1ccc(CNc2ccc3c(c2)ncn3C(C)(C)C)cc1 | inconclusive: 23.1 µM [activator, single point]
48 | Cc1cccc(OCCCN2CCCCCC2)c1 | inactive
49 | Cc1cccc(Oc2coc3cc(OC(=O)c4cccs4)ccc3c2=O)c1 | inconclusive: 16.4 µM [activator, partial curve]
50 | C[C@H](NS(=O)(=O)c1ccc(Cl)cc1)C(=O)OCC(=O)N1CCOCC1 | inactive

A few values from above:
Potency, CCOc1ccc(CNc2ccc3c(c2)ncn3C(C)(C)C)cc1 reads inconclusive: 23.1 µM [activator, single point]
Potency, COc1cc2c(cc1OC)CN(C(=O)c1cc(S(=O)(=O)N3CCCCC3)ccc1Cl)CC2 reads inconclusive: 20.6 µM [inhibitor, single point]

Further results follow.

Row | SMILES | Potency
51 | COC(=O)c1ccc(CN2C(=O)C(C)N(C(=O)c3c(F)cccc3F)c3ccccc32)cc1 (centres undefined) | inconclusive: 32.6 µM [inhibitor, single point]
52 | NC(=O)c1csc(-c2ccncc2)n1 | inactive
53 | CCCCN(C)CCCNC(=O)C1CCC(CNS(=O)(=O)c2c(C)cc(C)cc2C)CC1 (centres undefined) | inactive
54 | COc1cc(C(=O)NNC(=O)c2cc(=O)[nH]c3ccccc23)cc(OC)c1OC | inactive
55 | O=C(O)CCNC(=S)Nc1cccc(F)c1 | inactive
56 | CN(CC(CC(=O)Nc1nncs1)c1ccccc1)S(=O)(=O)c1ccc(Br)cc1 (centres undefined) | inconclusive: 18.4 µM [inhibitor, single point]
57 | O=C(CCCNS(=O)(=O)c1cccc2nsnc12)NCCc1ccccc1 | inconclusive: 2.82 µM [inhibitor, single point]
58 | O=C(Nc1ccnc(-c2ccncc2)n1)c1ccccc1Cl | inconclusive: 18.3 µM [inhibitor, partial curve, poor fit]
59 | O=C(COc1ccc(Cl)cc1)NCc1nnc(SCC(=O)c2ccccc2)o1 | inconclusive: 29.1 µM [inhibitor, single point]
60 | CC1CCN(C(=O)CN(c2ccc(Cl)c(C(F)(F)F)c2)S(C)(=O)=O)CC1 | inconclusive: 23.1 µM [inhibitor, partial curve, poor fit]
61 | CC(C)(C)c1ccc(OC(=O)N2CCOCC2)cc1 | inconclusive: 13 µM [activator, partial curve]
62 | CCCCN(Cc1ccccc1)c1ncnc2nc[nH]c12 | inconclusive: 18.4 µM [activator, single point]
63 | C/C(=N\NC(=O)c1csc2ccccc12)c1ccc(O)cc1 | inactive
64 | CC(C)(C)C1CCc2onc(C(=O)Nc3cnn(Cc4ccc(F)cc4)c3)c2C1 (centres undefined) | inactive
65 | Cc1nnc(SCC(=O)c2c[nH]c3ccccc23)n1C1CC1 | inconclusive: 29.1 µM [activator, single point]
66 | CC(c1ccccc1)C1C(C#N)=C(N)OC2=C1C(=O)CC(C)(C)C2 (centres undefined) | inactive
67 | CCN(CC)S(=O)(=O)c1ccc(N2CCOCC2)c(NC(=O)c2cnccn2)c1 | inconclusive: 18.4 µM [inhibitor, single point]
68 | Cc1noc(C(=O)Nc2ccc(F)c(Cl)c2)c1Cl | inconclusive: 18.3 µM [activator, single point]
69 | CSc1nsc(SCC(=O)Nc2ccccn2)n1 | inconclusive: 29.1 µM [activator, partial curve, poor fit]
70 | Cc1cccc(NC(=S)NNC(=O)c2csc(C)c2)c1 | inconclusive: 14.6 µM [activator, partial curve]
71 | Cc1nnc(NC(=O)c2c(-c3ccccc3Cl)noc2C)s1 | inactive
72 | CCNC(=S)N/N=C(\C)c1ccc2ccccc2c1 | inconclusive: 20.6 µM [inhibitor, single point]
73 | Cc1cc(C)c2c(N)c(C(=O)c3cccc(Cl)c3)sc2n1 | active: 25.9 µM
74 | COc1ccc(NC(=O)O/N=C/c2c(C)nn(C(C)(C)C)c2C)cc1 | inconclusive: 1.46 µM [activator, partial curve]
